To fix the notation:
T1: murine EpCAM in fusion with yellow fluorescent protein (YFP) at the C-terminus, in mF9 cells (murine) (UniProt Q99JW5)
T1 sequence: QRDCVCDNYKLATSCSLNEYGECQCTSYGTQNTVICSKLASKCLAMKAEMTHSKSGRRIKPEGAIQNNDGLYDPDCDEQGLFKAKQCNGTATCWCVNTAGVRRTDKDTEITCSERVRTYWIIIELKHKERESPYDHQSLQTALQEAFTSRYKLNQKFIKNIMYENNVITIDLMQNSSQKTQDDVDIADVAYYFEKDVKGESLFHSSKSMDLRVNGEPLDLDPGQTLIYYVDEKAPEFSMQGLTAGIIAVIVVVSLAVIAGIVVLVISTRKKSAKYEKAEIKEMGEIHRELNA

The chains behind the UniProt entries cited, without tags or fusion partners.
UniProt O35129: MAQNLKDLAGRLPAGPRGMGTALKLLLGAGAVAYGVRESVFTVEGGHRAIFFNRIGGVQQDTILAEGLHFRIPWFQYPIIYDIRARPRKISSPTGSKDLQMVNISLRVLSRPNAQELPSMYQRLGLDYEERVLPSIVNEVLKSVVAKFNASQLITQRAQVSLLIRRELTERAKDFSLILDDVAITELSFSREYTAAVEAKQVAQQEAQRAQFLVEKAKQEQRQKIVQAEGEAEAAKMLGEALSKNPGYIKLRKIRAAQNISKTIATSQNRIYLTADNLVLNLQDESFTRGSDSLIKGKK
UniProt P51150: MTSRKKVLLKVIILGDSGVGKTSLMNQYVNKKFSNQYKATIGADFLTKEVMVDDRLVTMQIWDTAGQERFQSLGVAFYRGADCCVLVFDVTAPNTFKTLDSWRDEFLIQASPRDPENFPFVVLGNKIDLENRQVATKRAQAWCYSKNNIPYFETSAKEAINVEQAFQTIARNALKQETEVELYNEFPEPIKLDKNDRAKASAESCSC

T2: murine EpCAM in fusion with yellow fluorescent protein (YFP) at the C-terminus, in E14TG2α ESC (murine) (UniProt Q99JW5)
T2 sequence: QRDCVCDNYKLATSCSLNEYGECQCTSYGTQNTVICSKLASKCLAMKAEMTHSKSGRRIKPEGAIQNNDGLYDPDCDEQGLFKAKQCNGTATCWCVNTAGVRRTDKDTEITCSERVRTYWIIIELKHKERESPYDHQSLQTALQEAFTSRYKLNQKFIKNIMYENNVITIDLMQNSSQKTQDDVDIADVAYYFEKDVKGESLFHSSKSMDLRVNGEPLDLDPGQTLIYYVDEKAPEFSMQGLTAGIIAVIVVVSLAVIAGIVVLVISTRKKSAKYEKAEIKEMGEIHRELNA

B1: Transportin 1 (protein, UniProt Q8BFY9 1-898)
chain: MVWDRQTKMEYEWKPDEQGLQQILQLLKESQSPDTTIQRTVQQKLEQLNQYPDFNNYLIFVLTKLKSEDEPTRSLSGLILKNNVKAHFQNFPNGVTDFIKSECLNNIGDSSPLIRATVGILITTIASKGELQNWPDLLPKLCSLLDSEDYNTCEGAFGALQKICEDSAEILDSDVLDRPLNIMIPKFLQFFKHSSPKIRSHAVACVNQFIISRTQALMLHIDSFIENLFALAGDEEAEVRKNVCRALVMLLEVRMDRLLPHMHNIVEYMLQRTQDQDENVALEACEFWLTLAEQPICKDVLVRHLPKLIPVLVNGMKYSDIDIILLKGDVEEDETIPDSEQDIRPRFHRSRTVAQQHEEDGIEEEDDDDDEIDDDDTISDWNLRKCSAAALDVLANVYRDELLPHILPLLKELLFHHEWVVKESGILVLGAIAEGCMQGMIPYLPELIPHLIQCLSDKKALVRSITCWTLSRYAHWVVSQPPDTYLKPLMTELLKRILDSNKRVQEAACSAFATLEEEACTELVPYLAYILDTLVFAFSKYQHKNLLILYDAIGTLADSVGHHLNKPEYIQMLMPPLIQKWNMLKDEDKDLFPLLECLSSVATALQSGFLPYCEPVYQRCVNLVQKTLAQAMLNNAQPEQYEAPDKDFMIVALDLLSGLAEGLGGNIEQLVARSNILTLMYQCMQDKMPEVRQSSFALLGDLTKACFQHVKPCIADFMPILGTNLNPEFISVCNNATWAIGEISIQMGIEMQPYIPMVLHQLVEIINRPNTPKTLLENTAITIGRLGYVCPQEVAPMLQQFIRPWCTSLRNIRDNEEKDSAFRGICTMISVNPSGVIQDFIFFCDAVASWINPKDDLRDMFCKILHGFKNQVGDENWRRFSDQFPLPLKERLAAFYGV
B2: Exportin-2 (protein, UniProt Q9ERK4 1-971)
chain: MELSDANLQTLTEYLKKTLDPDPAIRRPAEKFLESVEGNQNYPLLLLTLLEKSQDNVIKVCASVTFKNYIKRNWRIVEDEPNKICEADRVAIKANIVHLMLSSPEQIQKQLSDAISIIGREDFPQKWPDLLTEMVNRFQSGDFHVINGVLRTAHSLFKRYRHEFKSNELWTEIKLVLDAFALPLTNLFKATIELCSTHANDASALRILFSSLILISKLFYSLNFQDLPEFFEDNMETWMNNFHTLLTLDNKLLQTDDEEEAGLLELLKSQICDNAALYAQKYDEEFQRYLPRFVTAIWNLLVTTGREVKYDLLVSNAIQFLASVCERPHYKNLFEDQNTLTSICEKVIVPNMEFRAADEEAFEDNSEEYIRRDLEGSDIDTRRRAACDLVRGLCKFFEGPVTGIFSGYVNSMLQEYAKNPSVNWKHKDAAIYLVTSLASKAQTQKHGITQANELVNLTEFFVNHILPDLKSNNVNEFPVLKADGIKYIMIFRNQVPKEHLLVSIPLLISHLEAESIVVHTYAAHALERLFTMRGSNNTTLFTAAEIAPFVEILLTNLFKALTLPGSSENEYIMKAIMRSFSLLQEAIIPYIPTLITQLTQKLLAVSKNPSKPHFNHYMFEAICLSIRITCKANPAAVVNFEEALFLVFTEILQNDVQEFIPYVFQVMSLLLETHKNDIPSSYMALFPHLLQPVLWERTGNIPALVRLLQAFLERGSSTIATAAADKIPGLLGVFQKLIASKANDHQGFYLLNSIIEHMPPESVDQYRKQIFILLFQRLQNSKTTKFIKSFLVFINLYCIKYGALALQEIFDGIQPKMFGMVLEKIIIPEIQKVSGNVEKKICAVGITKLLTECPPMMDTEYTKLWTPLLQSLIGLFELPEDDSIPDEEHFIDIEDTPGYQTAFSQLAFAGKKEHDPVGQMVNNPKIHLAQSLHKLSTACPGRVPSMVSTSLNAEALQYLQGYLQAASVTLL
B3: Calnexin, in E14TG2α ESC (protein, UniProt P35564 21-591)
chain: HDGHDDDAIDIEDDLDDVIEEVEDSKSKSDASTPPSPKVTYKAPVPTGEVYFADSFDRGSLSGWILSKAKKDDTDDEIAKYDGKWEVDEMKETKLPGDKGLVLMSRAKHHAISAKLNKPFLFDTKPLIVQYEVNFQNGIECGGAYVKLLSKTAELSLDQFHDKTPYTIMFGPDKCGEDYKLHFIFRHKNPKTGVYEEKHAKRPDADLKTYFTDKKTHLYTLILNPDNSFEILVDQSVVNSGNLLNDMTPPVNPSREIEDPEDRKPEDWDERPKIADPDAVKPDDWDEDAPSKIPDEEATKPEGWLDDEPEYIPDPDAEKPEDWDEDMDGEWEAPQIANPKCESAPGCGVWQRPMIDNPNYKGKWKPPMIDNPNYQGIWKPRKIPNPDFFEDLEPFKMTPFSAIGLELWSMTSDIFFDNFIISGDRRVVDDWANDGWGLKKAADGAAEPGVVLQMLEAAEERPWLWVVYILTVALPVFLVILFCCSGKKQSNAMEYKKTDAPQPDVKDEEGKEEEKNKRDEEEEEEKLEEKQKSDAEEDGVTGSQDEEDSKPKAEEDEILNRSPRNRKPRRE
B4: Prohibitin 1, in E14TG2α ESC (protein, UniProt P67778 1-272)
chain: MAAKVFESIGKFGLALAVAGGVVNSALYNVDAGHRAVIFDRFRGVQDIVVGEGTHFLIPWVQKPIIFDCRSRPRNVPVITGSKDLQNVNITLRILFRPVASQLPRIYTSIGEDYDERVLPSITTEILKSVVARFDAGELITQRELVSRQVSDDLTERAATFGLILDDVSLTHLTFGKEFTEAVEAKQVAQQEAERARFVVEKAEQQKKAAIISAEGDSKAAELIANSLATAGDGLIELRKLEAAEDIAYQLSRSRNITYLPAGQSVLLQLPQ
B5: Calnexin (protein, UniProt P35564 21-591)
chain: HDGHDDDAIDIEDDLDDVIEEVEDSKSKSDASTPPSPKVTYKAPVPTGEVYFADSFDRGSLSGWILSKAKKDDTDDEIAKYDGKWEVDEMKETKLPGDKGLVLMSRAKHHAISAKLNKPFLFDTKPLIVQYEVNFQNGIECGGAYVKLLSKTAELSLDQFHDKTPYTIMFGPDKCGEDYKLHFIFRHKNPKTGVYEEKHAKRPDADLKTYFTDKKTHLYTLILNPDNSFEILVDQSVVNSGNLLNDMTPPVNPSREIEDPEDRKPEDWDERPKIADPDAVKPDDWDEDAPSKIPDEEATKPEGWLDDEPEYIPDPDAEKPEDWDEDMDGEWEAPQIANPKCESAPGCGVWQRPMIDNPNYKGKWKPPMIDNPNYQGIWKPRKIPNPDFFEDLEPFKMTPFSAIGLELWSMTSDIFFDNFIISGDRRVVDDWANDGWGLKKAADGAAEPGVVLQMLEAAEERPWLWVVYILTVALPVFLVILFCCSGKKQSNAMEYKKTDAPQPDVKDEEGKEEEKNKRDEEEEEEKLEEKQKSDAEEDGVTGSQDEEDSKPKAEEDEILNRSPRNRKPRRE
B6: Prohibitin-1 (protein, UniProt P67778 1-272)
chain: MAAKVFESIGKFGLALAVAGGVVNSALYNVDAGHRAVIFDRFRGVQDIVVGEGTHFLIPWVQKPIIFDCRSRPRNVPVITGSKDLQNVNITLRILFRPVASQLPRIYTSIGEDYDERVLPSITTEILKSVVARFDAGELITQRELVSRQVSDDLTERAATFGLILDDVSLTHLTFGKEFTEAVEAKQVAQQEAERARFVVEKAEQQKKAAIISAEGDSKAAELIANSLATAGDGLIELRKLEAAEDIAYQLSRSRNITYLPAGQSVLLQLPQ

Results are given in words; binding and its absence hold for the method and conditions named. In cells and extracts the contact can be indirect. Some results given as binding are weak or reduced against the parent protein; the word gives no strength. Where a sequence is shown, tags or fusion partners need not be part of it.

The first assay concerns the target T1, murine EpCAM in fusion with yellow fluorescent protein (YFP) at the C-terminus, in mF9 cells (murine). Briefly: co-IP; co-precipitation in mF9 cells, data not shown; no details told.
Regarding B1, the binding result is “binds”.

B2: the binding entry is “binds”.

In a further assay the target is T2, murine EpCAM in fusion with yellow fluorescent protein (YFP) at the C-terminus, in E14TG2α ESC (murine). Briefly: co-IP; lysates of E14TG2α ESC stably expressing EpCAM-YFP or YFP; GFP-Trap agarose beads; immunoblot of endogenous partners.
Take “Prohibitin 2, in E14TG2α ESC (from UniProt O35129 1-299)”: the binding result is “binds”.

On to B3, for which the binding entry is “binds”.

As for B4, the binding result is recorded as “binds”.

In the next assay the target is T1, murine EpCAM in fusion with yellow fluorescent protein (YFP) at the C-terminus, in mF9 cells (murine). As to the kind of experiment: co-IP; whole-cell lysates of mF9 cells stably expressing EpCAM-YFP or YFP; 4 mg lysate, GFP-Trap agarose beads; washed with 0.5% tween in TBS; immunoblot of endogenous partners. (In general: Immunoblotting shows a protein as a band on a membrane.)
On to “Ras-related protein Rab-7 (from UniProt P51150 1-207)”, for which the binding entry is recorded as “binds”.

Take “Prohibitin-2 (from UniProt O35129 1-299)”: the binding result was “binds”.

For B5, the binding entry is reported as “binds”.

Take B6: the binding entry is reported as “binds”.

The record behind these values is paper PMC8517208.
